From paper PMC7000207
Results are given in words; binding and its absence hold for the method and conditions named. In cells and extracts the contact can be indirect. Some entries that bind do so weakly or less than the wild type.

By UniProt entry, the sequences of proteins in these tests, tags left out. Residues count along the entry.
UniProt P09055, residues 21-798: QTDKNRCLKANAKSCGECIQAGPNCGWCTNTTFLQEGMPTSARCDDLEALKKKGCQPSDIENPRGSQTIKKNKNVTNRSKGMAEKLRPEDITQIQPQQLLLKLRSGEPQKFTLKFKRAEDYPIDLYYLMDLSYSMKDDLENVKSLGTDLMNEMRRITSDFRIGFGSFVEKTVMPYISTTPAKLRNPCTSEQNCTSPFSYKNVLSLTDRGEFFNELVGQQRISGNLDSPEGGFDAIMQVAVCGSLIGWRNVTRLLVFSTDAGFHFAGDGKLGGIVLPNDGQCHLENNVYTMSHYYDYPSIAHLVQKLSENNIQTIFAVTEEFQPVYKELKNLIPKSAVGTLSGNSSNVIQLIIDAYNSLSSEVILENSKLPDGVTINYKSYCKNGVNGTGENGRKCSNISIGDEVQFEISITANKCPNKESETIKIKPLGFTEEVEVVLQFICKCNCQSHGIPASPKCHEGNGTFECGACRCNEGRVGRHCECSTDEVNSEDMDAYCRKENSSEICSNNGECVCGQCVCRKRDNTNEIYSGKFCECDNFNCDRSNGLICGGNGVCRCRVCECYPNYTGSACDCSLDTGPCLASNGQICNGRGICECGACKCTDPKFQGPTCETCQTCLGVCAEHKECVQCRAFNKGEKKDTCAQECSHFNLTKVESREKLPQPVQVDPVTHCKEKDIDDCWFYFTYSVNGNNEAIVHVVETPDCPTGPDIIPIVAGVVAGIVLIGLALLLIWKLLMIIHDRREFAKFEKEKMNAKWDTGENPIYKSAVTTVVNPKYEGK
UniProt Q9QUK6, residues 26-835: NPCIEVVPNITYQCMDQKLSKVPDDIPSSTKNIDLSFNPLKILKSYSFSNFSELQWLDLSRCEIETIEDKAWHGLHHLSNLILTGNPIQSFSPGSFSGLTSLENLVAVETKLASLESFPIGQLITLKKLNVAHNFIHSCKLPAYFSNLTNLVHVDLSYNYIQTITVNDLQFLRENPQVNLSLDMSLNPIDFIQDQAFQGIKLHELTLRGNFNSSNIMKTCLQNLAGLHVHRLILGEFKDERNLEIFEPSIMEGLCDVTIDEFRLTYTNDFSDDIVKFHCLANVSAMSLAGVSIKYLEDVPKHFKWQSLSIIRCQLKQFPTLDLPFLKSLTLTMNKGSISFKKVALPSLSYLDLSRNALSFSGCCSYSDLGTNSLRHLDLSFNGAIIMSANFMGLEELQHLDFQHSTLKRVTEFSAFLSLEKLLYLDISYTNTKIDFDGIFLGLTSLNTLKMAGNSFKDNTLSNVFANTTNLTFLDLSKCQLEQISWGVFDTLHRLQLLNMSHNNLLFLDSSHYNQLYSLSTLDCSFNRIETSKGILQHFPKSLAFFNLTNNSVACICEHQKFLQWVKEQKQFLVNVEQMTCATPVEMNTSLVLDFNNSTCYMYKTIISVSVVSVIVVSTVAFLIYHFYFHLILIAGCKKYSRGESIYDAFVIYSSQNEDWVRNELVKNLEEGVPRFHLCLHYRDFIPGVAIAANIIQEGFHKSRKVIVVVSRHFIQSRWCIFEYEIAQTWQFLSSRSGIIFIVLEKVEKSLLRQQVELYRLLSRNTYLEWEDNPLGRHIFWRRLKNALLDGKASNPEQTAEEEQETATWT

Target: integrin β1 (cluster of differentiation 29, CD29) (mouse (endogenous in peritoneal macrophages)) (UniProt P09055)
Assay: FRET or BRET; acceptor-photobleaching FRET by laser confocal microscopy on mouse peritoneal macrophages on coverslips; AF488-conjugated TLR4 or TLR2 antibody (donor) and AF594-conjugated integrin β1 antibody (acceptor), 1:200, 37°C; cells fixed with 3.7% paraformaldehyde; cells treated with LPS (TLR4) or PGN (TLR2), with or without FN

## toll-like receptor 4 (TLR4) (from UniProt Q9QUK6 26-835)
  binding: binds
